Laboratory results published in article PMC9522360, “Bidirectional sequestration between a bacterial hibernation factor and a glutamate metabolizing protein” (Proceedings of the National Academy of Sciences of the …, 2022).

Sequences of proteins named here, by UniProt entry; tags and fusion partners are left off. A change or cut given only in a name is not applied to a line headed by its entry.
UniProt Q2FJ92: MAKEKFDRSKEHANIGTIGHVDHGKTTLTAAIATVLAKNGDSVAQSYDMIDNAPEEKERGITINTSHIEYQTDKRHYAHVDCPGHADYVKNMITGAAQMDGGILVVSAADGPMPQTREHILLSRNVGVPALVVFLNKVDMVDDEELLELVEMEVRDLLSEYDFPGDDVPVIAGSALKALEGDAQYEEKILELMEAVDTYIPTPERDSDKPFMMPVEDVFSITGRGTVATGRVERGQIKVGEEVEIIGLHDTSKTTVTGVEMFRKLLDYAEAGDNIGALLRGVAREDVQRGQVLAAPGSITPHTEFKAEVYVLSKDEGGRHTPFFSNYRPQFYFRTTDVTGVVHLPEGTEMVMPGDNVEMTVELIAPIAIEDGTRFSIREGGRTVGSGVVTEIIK
UniProt A0A0H2XFW2: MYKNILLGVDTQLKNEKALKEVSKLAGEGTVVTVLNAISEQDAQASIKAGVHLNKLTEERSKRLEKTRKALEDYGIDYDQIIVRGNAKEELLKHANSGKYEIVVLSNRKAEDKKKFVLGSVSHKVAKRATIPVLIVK

Biological target: T1, 2×FLAG HPF (hibernation-promoting factor with a tandem FLAG tag inserted at position 70) (S. aureus) (UniProt Q2FIN9)
T1 sequence: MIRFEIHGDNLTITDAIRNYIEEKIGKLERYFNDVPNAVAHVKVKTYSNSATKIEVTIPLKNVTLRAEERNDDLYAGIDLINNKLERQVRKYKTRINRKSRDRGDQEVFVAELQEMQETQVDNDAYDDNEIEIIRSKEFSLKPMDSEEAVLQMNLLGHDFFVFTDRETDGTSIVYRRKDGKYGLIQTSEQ
Experiment: affinity purification with mass spectrometry; lysates of S. aureus Δhpf with 2×FLAG HPF (untagged HPF as control), exponential (4 h) or stationary phase (18 h); anti-FLAG M2 magnetic beads, 1 h at ~22 °C and 15 h at 4 °C, Buffer C (50 mM Tris-Cl pH 7.5, 100 mM KCl, 1 mM PMSF); elution with glycine pH 2.6; SDS-PAGE bands and gel-free eluate by LC-MS/MS

| Substance | binding |
| --- | --- |
| translation factor EF-Tu (from UniProt Q2FJ92 1-394) | binds |
| universal stress protein (Usp homolog, SAUSA300_1652) (from UniProt A0A0H2XFW2) | binds |

These are yes or no findings as the source states them, for the method shown. Binding seen in cells or lysates may run through a third protein. A yes stands for co-enrichment or nearness to the bait. Other partners may have been found. Tags and fused reporters may be left off the sequences shown.
